Reference: PMC3672163
These are yes or no findings as the source states them, for the method shown. Binding seen in cells or lysates may run through a third protein. Where a sequence is shown, tags or fusion partners need not be part of it.

Molecular target: T1, HA-tagged MKlp1 (UniProt Q02241)
T1 sequence: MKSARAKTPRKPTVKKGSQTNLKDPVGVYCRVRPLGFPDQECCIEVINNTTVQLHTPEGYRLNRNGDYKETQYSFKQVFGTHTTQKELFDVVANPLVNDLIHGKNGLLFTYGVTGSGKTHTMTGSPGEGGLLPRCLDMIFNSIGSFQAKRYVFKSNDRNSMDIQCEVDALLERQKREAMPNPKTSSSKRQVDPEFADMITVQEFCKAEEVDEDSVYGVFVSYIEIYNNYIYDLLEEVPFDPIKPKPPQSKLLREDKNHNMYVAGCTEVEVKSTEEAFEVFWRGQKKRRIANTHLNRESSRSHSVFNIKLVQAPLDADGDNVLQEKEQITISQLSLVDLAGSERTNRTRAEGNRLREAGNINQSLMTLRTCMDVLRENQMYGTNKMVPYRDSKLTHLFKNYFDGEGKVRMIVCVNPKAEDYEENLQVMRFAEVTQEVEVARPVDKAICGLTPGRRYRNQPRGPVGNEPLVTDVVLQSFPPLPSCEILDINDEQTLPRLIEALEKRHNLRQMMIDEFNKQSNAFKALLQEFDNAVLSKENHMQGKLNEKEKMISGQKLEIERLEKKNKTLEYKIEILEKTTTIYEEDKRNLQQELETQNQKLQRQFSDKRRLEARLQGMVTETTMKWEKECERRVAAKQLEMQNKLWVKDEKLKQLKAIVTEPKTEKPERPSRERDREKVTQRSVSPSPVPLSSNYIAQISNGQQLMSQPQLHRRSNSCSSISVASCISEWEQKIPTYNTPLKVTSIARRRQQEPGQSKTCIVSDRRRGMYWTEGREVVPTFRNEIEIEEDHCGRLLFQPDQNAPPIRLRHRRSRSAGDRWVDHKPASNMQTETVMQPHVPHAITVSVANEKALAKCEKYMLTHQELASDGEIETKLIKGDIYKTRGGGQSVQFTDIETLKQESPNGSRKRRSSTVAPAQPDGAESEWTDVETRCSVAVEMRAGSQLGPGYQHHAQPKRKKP
Experiment: co-IP; HeLa cells transfected for 24 h, 0.1% NP-40 cell lysis buffer; antibodies to HA, Myc or GFP with Protein G-Sepharose (Figure 2B-D)

binding: no binding
Substance: endogenous myosin-II (human (endogenous in HeLa))
